The source of these data is the supplement of paper PMC12819154, “High-throughput peptide-centric local stability assay extends protein–ligand identification to membrane proteins, tissues and bacteria” (Nature Structural & Molecular Biology, 2025).

Protein sequences, listed by entry. Tags and fused reporters are not part of them. Lines headed by an entry give the natural chain unless they say otherwise; changes in a name come on top.
UniProt O14732: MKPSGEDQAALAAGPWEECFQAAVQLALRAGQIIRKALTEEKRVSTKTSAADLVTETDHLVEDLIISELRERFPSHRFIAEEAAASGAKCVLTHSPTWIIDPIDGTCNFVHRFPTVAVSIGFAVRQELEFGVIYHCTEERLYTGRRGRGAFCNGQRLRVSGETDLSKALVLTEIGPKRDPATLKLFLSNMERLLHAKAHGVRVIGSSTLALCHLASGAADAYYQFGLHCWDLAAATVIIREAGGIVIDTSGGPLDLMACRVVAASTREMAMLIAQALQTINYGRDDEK
UniProt O14730: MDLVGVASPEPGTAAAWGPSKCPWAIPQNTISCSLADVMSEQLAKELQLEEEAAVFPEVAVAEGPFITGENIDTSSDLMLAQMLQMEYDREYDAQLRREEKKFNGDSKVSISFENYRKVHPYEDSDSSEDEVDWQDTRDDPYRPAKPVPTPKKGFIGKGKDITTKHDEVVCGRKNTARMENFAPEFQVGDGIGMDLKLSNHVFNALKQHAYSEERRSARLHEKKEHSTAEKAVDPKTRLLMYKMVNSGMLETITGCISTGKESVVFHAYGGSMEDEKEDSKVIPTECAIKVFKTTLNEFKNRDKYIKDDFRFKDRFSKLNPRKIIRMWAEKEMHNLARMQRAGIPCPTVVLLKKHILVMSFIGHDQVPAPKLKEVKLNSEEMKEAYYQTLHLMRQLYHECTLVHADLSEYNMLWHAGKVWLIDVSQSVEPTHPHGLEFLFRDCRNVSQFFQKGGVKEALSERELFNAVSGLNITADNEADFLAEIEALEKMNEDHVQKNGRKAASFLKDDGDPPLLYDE
UniProt O14593: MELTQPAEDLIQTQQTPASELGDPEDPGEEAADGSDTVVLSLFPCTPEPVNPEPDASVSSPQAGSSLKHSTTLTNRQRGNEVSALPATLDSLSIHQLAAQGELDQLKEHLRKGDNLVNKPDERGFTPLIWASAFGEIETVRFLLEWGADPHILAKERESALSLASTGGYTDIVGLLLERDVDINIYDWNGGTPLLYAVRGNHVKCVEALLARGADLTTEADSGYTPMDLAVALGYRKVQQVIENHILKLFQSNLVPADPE
UniProt O14978: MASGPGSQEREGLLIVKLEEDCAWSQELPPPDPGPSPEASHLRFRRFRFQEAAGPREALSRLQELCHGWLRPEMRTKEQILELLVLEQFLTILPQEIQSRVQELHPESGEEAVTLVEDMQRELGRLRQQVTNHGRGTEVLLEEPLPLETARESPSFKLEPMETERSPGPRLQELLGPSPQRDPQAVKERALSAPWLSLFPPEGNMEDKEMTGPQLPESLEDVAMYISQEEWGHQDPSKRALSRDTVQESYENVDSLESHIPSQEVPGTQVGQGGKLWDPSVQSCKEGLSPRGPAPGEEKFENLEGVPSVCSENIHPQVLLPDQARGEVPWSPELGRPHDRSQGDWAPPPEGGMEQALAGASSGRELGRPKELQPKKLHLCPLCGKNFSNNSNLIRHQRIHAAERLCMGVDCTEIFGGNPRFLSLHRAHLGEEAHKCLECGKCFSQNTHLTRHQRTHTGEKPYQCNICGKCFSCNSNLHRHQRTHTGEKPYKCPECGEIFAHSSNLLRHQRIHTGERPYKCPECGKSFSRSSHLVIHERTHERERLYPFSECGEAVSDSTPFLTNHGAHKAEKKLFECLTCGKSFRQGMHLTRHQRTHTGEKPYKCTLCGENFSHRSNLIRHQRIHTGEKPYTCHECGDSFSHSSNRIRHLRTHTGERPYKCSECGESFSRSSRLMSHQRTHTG
UniProt O15131, whole entry: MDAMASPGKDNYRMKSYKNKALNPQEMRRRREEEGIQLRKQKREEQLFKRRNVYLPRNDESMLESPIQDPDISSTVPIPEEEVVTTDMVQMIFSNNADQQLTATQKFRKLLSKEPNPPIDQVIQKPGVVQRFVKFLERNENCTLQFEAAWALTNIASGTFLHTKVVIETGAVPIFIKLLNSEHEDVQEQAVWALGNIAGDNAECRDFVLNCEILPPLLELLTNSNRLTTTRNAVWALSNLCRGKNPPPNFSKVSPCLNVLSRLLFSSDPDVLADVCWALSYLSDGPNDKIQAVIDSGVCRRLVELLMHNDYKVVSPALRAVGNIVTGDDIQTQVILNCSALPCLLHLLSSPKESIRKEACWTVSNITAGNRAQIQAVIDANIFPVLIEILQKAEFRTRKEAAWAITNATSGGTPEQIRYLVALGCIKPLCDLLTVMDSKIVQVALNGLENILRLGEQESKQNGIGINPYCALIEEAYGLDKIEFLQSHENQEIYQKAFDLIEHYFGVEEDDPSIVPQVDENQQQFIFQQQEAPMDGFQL
UniProt A8MPS7: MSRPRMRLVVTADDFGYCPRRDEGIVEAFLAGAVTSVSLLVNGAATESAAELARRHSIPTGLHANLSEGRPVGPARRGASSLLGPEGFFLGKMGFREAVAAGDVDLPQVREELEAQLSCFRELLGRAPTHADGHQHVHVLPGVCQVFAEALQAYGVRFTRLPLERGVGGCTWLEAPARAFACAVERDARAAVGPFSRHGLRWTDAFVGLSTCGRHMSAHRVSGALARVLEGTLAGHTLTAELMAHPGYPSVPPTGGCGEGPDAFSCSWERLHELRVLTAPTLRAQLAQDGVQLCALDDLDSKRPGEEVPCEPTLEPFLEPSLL
UniProt O15015: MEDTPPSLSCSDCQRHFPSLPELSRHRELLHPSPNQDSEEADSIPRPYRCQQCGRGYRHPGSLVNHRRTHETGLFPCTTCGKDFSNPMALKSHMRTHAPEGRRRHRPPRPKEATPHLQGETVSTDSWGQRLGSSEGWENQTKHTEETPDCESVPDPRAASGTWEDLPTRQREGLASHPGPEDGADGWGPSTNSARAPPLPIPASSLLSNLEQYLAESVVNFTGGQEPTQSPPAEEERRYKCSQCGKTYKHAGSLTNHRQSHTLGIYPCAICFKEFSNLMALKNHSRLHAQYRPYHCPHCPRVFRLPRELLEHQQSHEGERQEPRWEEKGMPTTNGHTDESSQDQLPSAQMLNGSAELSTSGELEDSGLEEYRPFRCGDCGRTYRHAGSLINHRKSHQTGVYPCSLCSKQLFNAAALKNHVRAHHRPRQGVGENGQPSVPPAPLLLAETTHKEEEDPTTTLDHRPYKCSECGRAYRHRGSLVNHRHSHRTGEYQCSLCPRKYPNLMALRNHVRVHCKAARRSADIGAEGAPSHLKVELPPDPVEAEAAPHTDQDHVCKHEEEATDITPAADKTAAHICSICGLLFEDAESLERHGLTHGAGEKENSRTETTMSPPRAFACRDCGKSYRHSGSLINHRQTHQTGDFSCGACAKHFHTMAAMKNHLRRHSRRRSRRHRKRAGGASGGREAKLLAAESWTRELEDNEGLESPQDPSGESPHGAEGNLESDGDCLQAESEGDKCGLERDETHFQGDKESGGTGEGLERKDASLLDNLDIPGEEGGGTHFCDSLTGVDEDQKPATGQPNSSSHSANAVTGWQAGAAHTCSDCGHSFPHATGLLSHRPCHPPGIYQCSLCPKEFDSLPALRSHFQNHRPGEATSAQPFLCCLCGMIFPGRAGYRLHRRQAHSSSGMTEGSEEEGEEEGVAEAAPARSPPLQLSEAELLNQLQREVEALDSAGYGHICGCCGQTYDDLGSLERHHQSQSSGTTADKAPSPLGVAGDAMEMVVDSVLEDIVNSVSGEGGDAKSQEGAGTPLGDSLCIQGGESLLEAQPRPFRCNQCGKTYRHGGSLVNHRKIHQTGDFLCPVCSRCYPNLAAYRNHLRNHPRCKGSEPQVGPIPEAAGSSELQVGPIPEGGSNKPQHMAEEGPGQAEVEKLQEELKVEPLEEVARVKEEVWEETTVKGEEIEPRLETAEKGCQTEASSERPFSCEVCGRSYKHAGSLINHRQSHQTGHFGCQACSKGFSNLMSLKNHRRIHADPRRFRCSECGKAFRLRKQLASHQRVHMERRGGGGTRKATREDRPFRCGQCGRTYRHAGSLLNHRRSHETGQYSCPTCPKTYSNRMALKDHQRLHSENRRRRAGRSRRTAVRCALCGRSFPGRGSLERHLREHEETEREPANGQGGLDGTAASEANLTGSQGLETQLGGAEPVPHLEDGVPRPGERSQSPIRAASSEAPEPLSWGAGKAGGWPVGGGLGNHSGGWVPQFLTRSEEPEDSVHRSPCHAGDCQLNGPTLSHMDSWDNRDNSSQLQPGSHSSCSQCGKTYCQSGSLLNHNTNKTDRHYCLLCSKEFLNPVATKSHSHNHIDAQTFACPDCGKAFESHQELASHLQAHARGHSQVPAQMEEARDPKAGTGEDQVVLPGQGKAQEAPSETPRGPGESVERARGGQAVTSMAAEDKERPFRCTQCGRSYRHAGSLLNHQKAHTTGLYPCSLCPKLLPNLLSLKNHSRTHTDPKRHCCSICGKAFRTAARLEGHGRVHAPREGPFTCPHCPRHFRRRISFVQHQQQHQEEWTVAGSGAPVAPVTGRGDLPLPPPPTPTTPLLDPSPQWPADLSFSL
UniProt O00264: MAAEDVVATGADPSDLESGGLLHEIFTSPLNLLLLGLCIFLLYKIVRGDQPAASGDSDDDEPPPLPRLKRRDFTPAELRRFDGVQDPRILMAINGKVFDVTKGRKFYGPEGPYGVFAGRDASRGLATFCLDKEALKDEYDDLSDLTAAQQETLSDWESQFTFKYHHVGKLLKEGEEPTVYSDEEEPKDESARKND
UniProt O00231, whole entry: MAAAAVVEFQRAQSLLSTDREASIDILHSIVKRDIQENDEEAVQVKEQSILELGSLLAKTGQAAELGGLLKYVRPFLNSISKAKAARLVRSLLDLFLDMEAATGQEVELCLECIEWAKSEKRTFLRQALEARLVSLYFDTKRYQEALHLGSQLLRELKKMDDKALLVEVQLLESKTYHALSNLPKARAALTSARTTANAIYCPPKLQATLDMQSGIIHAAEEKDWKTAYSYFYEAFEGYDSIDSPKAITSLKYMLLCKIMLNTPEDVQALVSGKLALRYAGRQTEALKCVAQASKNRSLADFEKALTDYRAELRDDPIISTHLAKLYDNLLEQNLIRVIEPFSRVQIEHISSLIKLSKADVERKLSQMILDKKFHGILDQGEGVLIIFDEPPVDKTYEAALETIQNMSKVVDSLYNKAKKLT
UniProt O14966: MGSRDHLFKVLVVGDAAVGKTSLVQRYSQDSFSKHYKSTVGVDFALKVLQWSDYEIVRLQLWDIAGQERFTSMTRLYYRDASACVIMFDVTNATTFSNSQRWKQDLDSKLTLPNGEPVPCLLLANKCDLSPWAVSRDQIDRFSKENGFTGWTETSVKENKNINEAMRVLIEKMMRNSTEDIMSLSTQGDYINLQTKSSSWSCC
UniProt O00370, whole entry, looked up: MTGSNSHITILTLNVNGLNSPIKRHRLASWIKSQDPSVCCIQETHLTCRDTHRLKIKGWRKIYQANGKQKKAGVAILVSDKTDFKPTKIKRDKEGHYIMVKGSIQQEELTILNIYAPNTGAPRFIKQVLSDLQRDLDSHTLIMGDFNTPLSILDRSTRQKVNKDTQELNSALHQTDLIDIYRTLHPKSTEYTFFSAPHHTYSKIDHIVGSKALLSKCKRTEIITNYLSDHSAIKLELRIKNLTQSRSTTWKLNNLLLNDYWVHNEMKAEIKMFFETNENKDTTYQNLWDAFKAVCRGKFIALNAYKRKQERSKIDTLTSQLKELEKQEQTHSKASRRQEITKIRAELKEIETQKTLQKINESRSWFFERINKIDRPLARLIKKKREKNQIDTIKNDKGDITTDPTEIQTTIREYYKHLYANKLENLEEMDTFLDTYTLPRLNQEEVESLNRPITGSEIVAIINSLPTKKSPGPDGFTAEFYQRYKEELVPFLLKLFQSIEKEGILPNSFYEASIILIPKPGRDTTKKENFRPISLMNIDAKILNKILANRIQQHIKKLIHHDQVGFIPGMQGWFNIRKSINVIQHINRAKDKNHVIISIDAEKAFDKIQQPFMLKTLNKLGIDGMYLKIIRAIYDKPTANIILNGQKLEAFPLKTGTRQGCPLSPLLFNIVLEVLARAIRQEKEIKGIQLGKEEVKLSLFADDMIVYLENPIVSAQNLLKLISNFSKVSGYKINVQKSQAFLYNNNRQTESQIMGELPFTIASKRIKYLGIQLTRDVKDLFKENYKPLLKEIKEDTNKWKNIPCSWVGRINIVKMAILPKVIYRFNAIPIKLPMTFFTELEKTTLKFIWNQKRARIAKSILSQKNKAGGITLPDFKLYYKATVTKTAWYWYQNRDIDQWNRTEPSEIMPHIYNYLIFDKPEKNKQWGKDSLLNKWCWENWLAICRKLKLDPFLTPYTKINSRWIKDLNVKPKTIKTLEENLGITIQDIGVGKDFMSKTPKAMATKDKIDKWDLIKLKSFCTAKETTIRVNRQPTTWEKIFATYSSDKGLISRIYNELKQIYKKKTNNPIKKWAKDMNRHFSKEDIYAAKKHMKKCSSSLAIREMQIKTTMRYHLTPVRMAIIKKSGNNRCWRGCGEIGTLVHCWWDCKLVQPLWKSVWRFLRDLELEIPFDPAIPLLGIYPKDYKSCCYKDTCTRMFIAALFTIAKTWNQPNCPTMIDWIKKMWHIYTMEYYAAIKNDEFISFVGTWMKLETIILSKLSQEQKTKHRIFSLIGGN

Some of the results follow. Most entries show no effect beyond the scatter of the controls.

Compound in this test: Cc1nc(Nc2ncc(C(=O)Nc3c(C)cccc3Cl)s2)cc(N2CCN(CCO)CC2)n1 [dasatinib]
Nature of the test: log2 fold change of tryptic peptide abundance, ligand vs vehicle (limited proteolysis) (log2 ratio); higher = more trypsin-susceptible (destabilized). To be noted: ligand concentration: 5 uM; sample: K562 cleared lysate.
For the target “UniProt O00507 (peptide sequence: LLQISSFNGK, peptide start residue: 342)”, the log2 fold change was -0.247.

In the case of “UniProt O15063 (peptide sequence: NIFIAGCSEEK, peptide start residue: 567)”, the log2 fold change is -0.213.

Take “IMPA2 (peptide sequence: QELEFGVIYHCTEER, peptide start residue: 126) (UniProt O14732)”: the log2 fold change was -0.481.

As to “RIOK3 (peptide sequence: EAYYQTLHLMR, peptide start residue: 384) (UniProt O14730)”, the log2 fold change amounted to 0.0686.

Consider “RFXANK (peptide sequence: KGDNLVNKPDER, peptide start residue: 112) (UniProt O14593)”, for which the log2 fold change was -0.144.

As to “UniProt O14978 (peptide sequence: CSECGESFSR, peptide start residue: 661)”, the log2 fold change worked out at 0.854.

In the case of “MEIS1 (peptide sequence: DHDDTASTR, peptide start residue: 216) (UniProt O00470)”, the log2 fold change came to 0.565.

In the case of “UniProt O14715 (peptide sequence: KYICTYINVQER, peptide start residue: 47)”, the log2 fold change was -0.222.

Consider “BET1 (peptide sequence: SLSIEIGHEVK, peptide start residue: 48) (UniProt O15155)”, for which the log2 fold change amounted to 0.0884.

Turning to “KPNA3 (peptide sequence: RDEHLLKK, peptide start residue: 41) (UniProt O00505)”, the log2 fold change was -0.798.

Regarding “UniProt D6REC4 (peptide sequence: QRVEQQK, peptide start residue: 379)”, the log2 fold change was -0.207.

For “PPP1R12A (peptide sequence: ESETSREDEYK, peptide start residue: 745) (UniProt O14974)”, the log2 fold change worked out at 0.334.

Take “KPNA5 (peptide sequence: LLSKEPNPPIDQVIQKPGVVQR, peptide start residue: 110) (UniProt O15131)”: the log2 fold change is -0.23.

As for “YDJC (peptide sequence: HSIPTGLHANLSEGRPVGPAR, peptide start residue: 56) (UniProt A8MPS7)”, the log2 fold change is -0.132.

For “HIP1 (peptide sequence: QVPNPLPK, peptide start residue: 10) (UniProt O00291)”, the log2 fold change is -0.351.

For the target “ZNF646 (peptide sequence: QTHQTGDFSCGACAK, peptide start residue: 637) (UniProt O15015)”, the log2 fold change stood at 0.229.

Turning to “PGRMC1 (peptide sequence: KFYGPEGPYGVFAGR, peptide start residue: 105) (UniProt O00264)”, the log2 fold change was 0.041.

Take “UniProt O15315 (peptide sequence: RVGLSQELCDR, peptide start residue: 8)”: the log2 fold change is -0.755.

For the target “TNPO2 (peptide sequence: GLLFHPEWVVK, peptide start residue: 401) (UniProt O14787)”, the log2 fold change is -0.596.

With “MAFG (peptide sequence: GPLAAGLGPLVPGK, peptide start residue: 131) (UniProt O15525)”, the log2 fold change was -0.141.

Take “STX16 (peptide sequence: ELASLHDK, peptide start residue: 98) (UniProt O14662)”: the log2 fold change was 0.153.

For the target “UniProt O14607 (peptide sequence: DKLNPPTPSIYLENKR, peptide start residue: 934)”, the log2 fold change was -0.197.

As for “CES2 (peptide sequence: ADHGDELPFVFR, peptide start residue: 455) (UniProt O00748)”, the log2 fold change is -0.552.

Take “WWP2 (peptide sequence: TTTWQRPTAEYVR, peptide start residue: 355) (UniProt O00308)”: the log2 fold change is -0.079.

Consider “PSMD11 (peptide sequence: DDPIISTHLAK, peptide start residue: 315) (UniProt O00231)”, for which the log2 fold change is 0.188.

As to “UniProt O15265 (peptide sequence: AAAAAGGAAAAAAR, peptide start residue: 16)”, the log2 fold change is -0.512.

As for “PFAS (peptide sequence: IVLVDDRECPVR, peptide start residue: 598) (UniProt O15067)”, the log2 fold change is 0.615.

As to “UniProt O14966 (peptide sequence: LQLWDIAGQER, peptide start residue: 77)”, the log2 fold change is -0.117.

Regarding “UniProt O00370 (peptide sequence: AIRQEKEIK, peptide start residue: 678)”, the log2 fold change was -0.0869.

Consider “UniProt A8MW92 (peptide sequence: DQDQIIAGVEKK, peptide start residue: 814)”, for which the log2 fold change amounted to 0.705.

“PITPNM1 (peptide sequence: EGPGTPPTTLAR, peptide start residue: 1219) (UniProt O00562)”: the log2 fold change is -0.313.

As to “BACH1 (peptide sequence: SECPWLGIR, peptide start residue: 433) (UniProt O14867)”, the log2 fold change is 0.138.

On to “PPP6C (peptide sequence: AKWPDRITLLR, peptide start residue: 101) (UniProt O00743)”, for which the log2 fold change was -0.131.

Consider “UniProt O00567 (peptide sequence: VREWYGYHFPELVK, peptide start residue: 189)”, for which the log2 fold change was determined as 0.136.

Consider “INPPL1 (peptide sequence: DSQEDWTTFTHDR, peptide start residue: 351) (UniProt O15357)”, for which the log2 fold change is 0.291.

Turning to “CENPX (peptide sequence: VFVVEAAVR, peptide start residue: 44) (UniProt A8MT69)”, the log2 fold change was -0.194.

On to “UniProt O00148 (peptide sequence: FSKYMPSVK, peptide start residue: 135)”, for which the log2 fold change came out at 0.282.

As to “CLIC1 (peptide sequence: LFMVLWLK, peptide start residue: 30) (UniProt O00299)”, the log2 fold change is -0.966.
